Measurements as given in PubChem BioAssay AID256 (DTP/NCI, 2004).
The list shows only some results of the screen, not a fair sample: it gathers tests that were run many times, whatever their T/C, doses with no T/C, and many T/C values between a quarter and a half above the control. Other doses and runs of a compound stand elsewhere. T/C: endpoint of the treated group in % of that of the vehicle group. Some entries give survivors of the animals treated and no T/C: the source holds a T/C of zero for them, seemingly a mark for toxic or unscored doses. Some survivor counts are full or nearly so, which does not show that the dose was tolerated: survival well below the control is almost never listed, so the zero probably covers shortened survival too. Survivors were counted at the toxicity check, usually on the fifth day, unless a day is given; later deaths do not show. Schedule codes are those of the source, taken here to give the interval after Q, in days (D) or hours (H), and the number of doses after X. Where survival is the endpoint, this PubChem deposit counts one and a half times the control or more as active, and values a quarter to a half above the control carry no call in these data; other NCI protocols may use other cut-offs.

System: CD2F1 mice, L1210 leukemia ip, survival T/C
Test: NCI In Vivo Anticancer Drug Screen. Data for tumor model L1210 Leukemia (intraperitoneal) in CD2F1 (CDF1) mice
Conditions: higher T/C = longer survival
Method in brief: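 Vehicle-treated tumor-bearing mice served as controls (C) for compound-treated mice (T). Reported figure is T divided by C.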

[1] = T/C endpoint: mean survival time, dose: 50.0 mg/kg/injection, schedule: Q01DX009 (ip), vehicle: saline with Tween-80
[2] = T/C endpoint: mean survival time, dose: 200.0 mg/kg/injection, schedule: Q01DX009 (ip), vehicle: saline with Tween-80
[3] = T/C endpoint: mean survival time, dose: 100.0 mg/kg/injection, schedule: Q04DX003 (ip), vehicle: saline with Tween-80
[4] = T/C endpoint: mean survival time, dose: 400.0 mg/kg/injection, schedule: Q04DX003 (ip), vehicle: saline with Tween-80

N#CC1CCCC[N-]1.[NH-]CC[N-]CC[NH-].[Pt+4] (stereo not given)
survivor count (T/C endpoint: mean survival time, dose: 200.0 mg/kg/injection, schedule: Q01DX009 (ip), vehicle: water): 0 of 6

CCOC(=O)C1=C(C)/C(=C/c2[n-]c(C)c(C(=O)OCC)c2C)N=C1C.CCOC(=O)C1=C(C)/C(=C/c2[n-]c(C)c(C(=O)OCC)c2C)N=C1C.[Co+2]
survivor count (T/C endpoint: mean survival time, dose: 100.0 mg/kg/injection, schedule: Q01DX001 (ip), vehicle: saline with Tween-80): 6 of 6

O=C1CN(Cc2ccc3c(c2)OCO3)NO1
T/C [1]: 133 % of control
T/C [2]: 129 % of control
survivor count [2]: 6 of 6

CCOC(=N)c1cn(C2OC(CO)C(O)C2O)c2ncnc(N)c12 (stereo not given)
T/C (T/C endpoint: mean survival time, dose: 0.12 mg/kg/injection, schedule: Q01DX009 (ip), vehicle: saline): 127 % of control
T/C (T/C endpoint: mean survival time, dose: 0.18 mg/kg/injection, schedule: Q01DX009 (ip), vehicle: saline): 128 % of control
T/C (T/C endpoint: mean survival time, dose: 0.27 mg/kg/injection, schedule: Q01DX009 (ip), vehicle: saline): 138 % of control
T/C (T/C endpoint: mean survival time, dose: 0.4 mg/kg/injection, schedule: Q01DX009 (ip), vehicle: saline): 138 % of control
T/C (T/C endpoint: mean survival time, dose: 5.0 mg/kg/injection, schedule: Q01DX001 (ip), vehicle: saline): 136 % of control
T/C (T/C endpoint: mean survival time, dose: 10.0 mg/kg/injection, schedule: Q01DX001 (ip), vehicle: saline): 143 % of control
survivor count (T/C endpoint: mean survival time, dose: 20.0 mg/kg/injection, schedule: Q01DX001 (ip), vehicle: saline): 2 of 6
survivor count (T/C endpoint: mean survival time, dose: 40.0 mg/kg/injection, schedule: Q01DX001 (ip), vehicle: saline): 0 of 6
survivor count (T/C endpoint: mean survival time, dose: 75.0 mg/kg/injection, schedule: Q01DX001 (ip), vehicle: saline): 0 of 6
survivor count (T/C endpoint: mean survival time, dose: 80.0 mg/kg/injection, schedule: Q01DX001 (ip), vehicle: saline): 0 of 6
survivor count (T/C endpoint: mean survival time, dose: 150.0 mg/kg/injection, schedule: Q01DX001 (ip), vehicle: saline): 0 of 6
survivor count (T/C endpoint: mean survival time, dose: 300.0 mg/kg/injection, schedule: Q01DX001 (ip), vehicle: saline): 0 of 6

COc1ccc2c(c1O)C1=CC(=O)CCC13CCN(C)C3C2 (stereo not given)
survivor count (T/C endpoint: mean survival time, dose: 400.0 mg/kg/injection, schedule: Q01DX009 (ip), vehicle: saline): 2 of 6

CNc1ccc(O)cc1
survivor count [3]: 0 of 6
survivor count (T/C endpoint: mean survival time, dose: 200.0 mg/kg/injection, schedule: Q04DX003 (ip), vehicle: saline with Tween-80): 0 of 6
survivor count [4]: 0 of 6

CC(=N)c1ccc(C)cc1
survivor count (T/C endpoint: mean survival time, dose: 100.0 mg/kg/injection, schedule: Q01DX001 (ip), vehicle: saline sonified): 2 of 6
survivor count (T/C endpoint: mean survival time, dose: 200.0 mg/kg/injection, schedule: Q01DX001 (ip), vehicle: saline sonified): 0 of 6
survivor count (T/C endpoint: mean survival time, dose: 400.0 mg/kg/injection, schedule: Q01DX001 (ip), vehicle: saline sonified): 0 of 6

O=C1c2ccccc2C(=O)c2c(NCCNCCO)ccc(O)c21
T/C (T/C endpoint: mean survival time, dose: 1.88 mg/kg/injection, schedule: Q01DX009 (ip), vehicle: saline): 136 % of control
T/C (T/C endpoint: mean survival time, dose: 3.75 mg/kg/injection, schedule: Q01DX009 (ip), vehicle: saline): 147 % of control
T/C (T/C endpoint: mean survival time, dose: 20.0 mg/kg/injection, schedule: Q01DX009 (ip), vehicle: suspension in saline): 125 % of control
survivor count (T/C endpoint: mean survival time, dose: 30.0 mg/kg/injection, schedule: Q01DX009 (ip), vehicle: saline): 6 of 6
T/C (T/C endpoint: mean survival time, dose: 40.0 mg/kg/injection, schedule: Q01DX009 (ip), vehicle: suspension in saline): 146 % of control
T/C (T/C endpoint: median survival time, dose: 10.0 mg/kg/injection, schedule: Q01DX009 (ip), vehicle: suspension in saline): 138 % of control
T/C (T/C endpoint: median survival time, dose: 20.0 mg/kg/injection, schedule: Q01DX009 (ip), vehicle: suspension in saline): 126 % of control

CCCCCCCc1c(C)c2ccc(OC)cc2[nH]c1=O
survivor count [4]: 3 of 6

CCCCc1ccc(-n2c(C)c(COC(=O)NC)c(COC(=O)NC)c2C)cc1
T/C (T/C endpoint: mean survival time, dose: 25.0 mg/kg/injection, schedule: Q01DX009 (ip), vehicle: Klucel (hydroxypropylcellulose) (HPC)): 127 % of control

COc1c(O)ccc(/C=C2/SC(=S)NC2=O)c1[N+](=O)[O-]
survivor count (T/C endpoint: mean survival time, dose: 200.0 mg/kg/injection, schedule: Q01DX001 (ip), vehicle: saline with Tween-80): 2 of 6
survivor count (T/C endpoint: mean survival time, dose: 400.0 mg/kg/injection, schedule: Q01DX001 (ip), vehicle: saline with Tween-80): 0 of 6

O=C1c2ccccc2C(=O)c2c(NCCN3CCNCC3)ccc(NCCN3CCNCC3)c21
survivor count (T/C endpoint: mean survival time, dose: 64.0 mg/kg/injection, schedule: Q01DX009 (ip), vehicle: acid diluted with saline): 0 of 6

O=[N+]([O-])c1ccc(/C=N/O)s1
survivor count [1]: 2 of 6

Cc1nc2ccccc2cc1C[N+]12CN3CN(CN(C3)C1)C2
survivor count (T/C endpoint: mean survival time, dose: 100.0 mg/kg/injection, schedule: Q01DX009 (ip), vehicle: saline with Tween-80): 4 of 6
survivor count [3]: 1 of 6
survivor count (T/C endpoint: mean survival time, dose: 200.0 mg/kg/injection, schedule: Q01DX001 (ip), vehicle: saline): 0 of 6
survivor count (T/C endpoint: mean survival time, dose: 400.0 mg/kg/injection, schedule: Q01DX001 (ip), vehicle: saline): 0 of 6

Cc1ccccc1[As](c1ccccc1C)c1ccccc1C
survivor count (T/C endpoint: mean survival time, dose: 50.0 mg/kg/injection, schedule: Q01DX009 (ip), vehicle: saline): 6 of 6

O=C1C=C(Cl)C(=O)N1c1cccc(Cl)c1
survivor count (T/C endpoint: mean survival time, dose: 25.0 mg/kg/injection, schedule: Q04DX003 (ip), vehicle: saline with Tween-80): 2 of 6
survivor count (T/C endpoint: mean survival time, dose: 50.0 mg/kg/injection, schedule: Q04DX003 (ip), vehicle: saline with Tween-80): 0 of 6
survivor count [3]: 0 of 6
